Cell number after 72 h of treatment

Values as published with doi:10.1371/journal.pone.0140310, rounded.

Compounds and concentrations:
ZM336372: Cc1ccc(NC(=O)c2cccc(N(C)C)c2)cc1NC(=O)c1ccc(O)cc1 at 2 µM
NVP-BEZ235: Cn1c(=O)n(-c2ccc(C(C)(C)C#N)cc2)c2c3cc(-c4cnc5ccccc5c4)ccc3ncc21 at 0.004 µM
BMS-536924: Cc1cc(N2CCOCC2)cc2[nH]c(-c3c(NC[C@@H](O)c4cccc(Cl)c4)cc[nH]c3=O)nc12 at 0.2 µM
CP-690550: C[C@@H]1CCN(C(=O)CC#N)C[C@@H]1N(C)c1ncnc2[nH]ccc12 at 1 µM
GW441756: Cn1cc(/C=C2\C(=O)Nc3cccnc32)c2ccccc21 at 0.4 µM
GW9662: O=C(Nc1ccccc1)c1cc([N+](=O)[O-])ccc1Cl at 2 µM
palbociclib: CC(=O)c1c(C)c2cnc(Nc3ccc(N4CCNCC4)cn3)nc2n(C2CCCC2)c1=O at 0.04 µM
OSI-906: C[C@]1(O)C[C@@H](c2nc(-c3ccc4ccc(-c5ccccc5)nc4c3)c3c(N)nccn32)C1 at 0.4 µM
L-779450: Oc1cc(-c2nc(-c3ccccc3)[nH]c2-c2ccncc2)ccc1Cl at 0.2 µM

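Human melanoma cells were exposed to two drugs together for 72 h in 1,536-well plates and read by automated microscopy after fixing and staining. The read-out is cell count (nuclei) in % of the DMSO control; lower values mean stronger growth inhibition or killing. Every drug was used at one fixed concentration, the lower of two screened (a fifth of the higher). No replicate spread is given; individual values may be noisy.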 This is part of the screen, not chosen by result. An entry leaves out what has no value listed here.

{"drugs": "GW9662 + NVP-BEZ235", "MEL-HO": 89.7, "501mel": 80.6}
{"drugs": "GW441756 + NVP-BEZ235", "MEL-HO": 88.5, "501mel": 91.4}
{"drugs": "BMS-536924 + GW441756", "MEL-HO": 106, "501mel": 77.3}
{"drugs": "CP-690550 + ZM336372", "MEL-HO": 97.1}
{"drugs": "GW441756 + CP-690550", "MEL-HO": 102, "501mel": 82.3}
{"drugs": "L-779450 + OSI-906", "MEL-HO": 85.1, "501mel": 93.2}
{"drugs": "GW9662 + L-779450", "MEL-HO": 93.0, "501mel": 93.7}
{"drugs": "ZM336372 + L-779450", "MEL-HO": 80.5}
{"drugs": "BMS-536924 + NVP-BEZ235", "MEL-HO": 94.8}
{"drugs": "GW441756 + ZM336372", "MEL-HO": 89.5, "501mel": 90.9}
{"drugs": "ZM336372 + NVP-BEZ235", "MEL-HO": 80.1}
{"drugs": "palbociclib + BMS-536924", "MEL-HO": 71.7}
{"drugs": "GW9662 + ZM336372", "MEL-HO": 89.9, "501mel": 85.3}
{"drugs": "L-779450 + CP-690550", "MEL-HO": 88.0, "501mel": 71.8}
{"drugs": "BMS-536924 + OSI-906", "MEL-HO": 91.9}
{"drugs": "palbociclib + CP-690550", "MEL-HO": 84.9}
{"drugs": "L-779450 + BMS-536924", "MEL-HO": 88.9}
{"drugs": "palbociclib + OSI-906", "MEL-HO": 74.3}
{"drugs": "GW9662 + OSI-906", "MEL-HO": 93.2, "501mel": 82.9}
{"drugs": "NVP-BEZ235 + palbociclib", "MEL-HO": 87.8}
{"drugs": "L-779450 + NVP-BEZ235", "MEL-HO": 71.4, "501mel": 70.1}
{"drugs": "GW9662 + GW441756", "MEL-HO": 113, "501mel": 92.1}
{"drugs": "OSI-906 + ZM336372", "MEL-HO": 107}
{"drugs": "OSI-906 + CP-690550", "MEL-HO": 105}
{"drugs": "ZM336372 + palbociclib", "MEL-HO": 85.7}
{"drugs": "NVP-BEZ235 + CP-690550", "MEL-HO": 97.0}

The first 3 entries again:

Drugs	MEL-HO	501mel
GW9662 + NVP-BEZ235	89.7	80.6
GW441756 + NVP-BEZ235	88.5	91.4
BMS-536924 + GW441756	106	77.3